Hit rate of the full screen: of about 260,000 compounds, about 1,500 (0.58%) were called active. Inconclusive results, whose numbers are uncertain, are shown with a selection of clear calls.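 Rule for the calls: active = inhibition above a set limit at one or more doses, reproduced on every date tested; inconclusive = results disagree between test dates, or hit never tested in dose response; inactive = the rest.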
Molecular target: Virion infectivity factor (Human immunodeficiency virus type 1 group M subtype B (isolate BH10)) + Virion infectivity factor (Human immunodeficiency virus type 1 group M subtype B (isolate BRU/LAI)) + Virion infectivity factor (Human immunodeficiency virus type 1 group M subtype B (isolate PCV12)) + Virion infectivity factor (Human immunodeficiency virus type 1 group M subtype B (isolate HXB2)) + DNA dC->dU-editing enzyme APOBEC-3G (Homo sapiens) (UniProt P69720+P69721+P69722+P69723+Q9HC16)
Experiment: inhibitors of Vif binding to APOBEC3G peptide, primary screen, biochemical, TR-FRET, GST-Vif 1-94, biotin-A3G peptide, dose response retest (AID 1117319);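 note: Vif residues 1-94 fused to GST binding biotinylated APOBEC3G peptide 110-148; 0% = full assay without inhibitor and 100% = GST in place of GST-Vif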
Conditions: stronger effect = higher value

The chains behind the UniProt entries cited, without tags or fusion partners. Where a name states a change or a piece, a line headed by the entry shows the natural chain unless it says otherwise.
UniProt P69720: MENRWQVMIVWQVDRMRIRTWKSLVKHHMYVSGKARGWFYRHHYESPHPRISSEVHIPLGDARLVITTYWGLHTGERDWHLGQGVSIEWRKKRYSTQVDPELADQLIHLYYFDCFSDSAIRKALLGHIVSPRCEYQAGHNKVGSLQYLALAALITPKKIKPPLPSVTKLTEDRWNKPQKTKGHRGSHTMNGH
UniProt P69721: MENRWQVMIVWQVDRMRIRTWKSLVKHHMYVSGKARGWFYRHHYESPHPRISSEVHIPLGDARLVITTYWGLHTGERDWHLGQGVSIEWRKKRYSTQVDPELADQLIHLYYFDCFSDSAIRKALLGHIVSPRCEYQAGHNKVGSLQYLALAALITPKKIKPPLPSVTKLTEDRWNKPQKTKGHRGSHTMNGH
UniProt P69722: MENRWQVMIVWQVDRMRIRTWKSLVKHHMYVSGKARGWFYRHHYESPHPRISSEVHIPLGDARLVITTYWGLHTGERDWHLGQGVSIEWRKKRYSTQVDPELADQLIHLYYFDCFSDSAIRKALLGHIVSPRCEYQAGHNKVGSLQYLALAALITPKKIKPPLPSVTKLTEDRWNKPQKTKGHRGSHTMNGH
UniProt P69723: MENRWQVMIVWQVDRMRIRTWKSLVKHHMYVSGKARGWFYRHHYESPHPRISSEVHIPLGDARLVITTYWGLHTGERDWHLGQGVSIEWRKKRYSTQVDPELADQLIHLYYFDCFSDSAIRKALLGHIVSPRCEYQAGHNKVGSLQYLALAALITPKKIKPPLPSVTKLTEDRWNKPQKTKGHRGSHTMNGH
UniProt Q9HC16: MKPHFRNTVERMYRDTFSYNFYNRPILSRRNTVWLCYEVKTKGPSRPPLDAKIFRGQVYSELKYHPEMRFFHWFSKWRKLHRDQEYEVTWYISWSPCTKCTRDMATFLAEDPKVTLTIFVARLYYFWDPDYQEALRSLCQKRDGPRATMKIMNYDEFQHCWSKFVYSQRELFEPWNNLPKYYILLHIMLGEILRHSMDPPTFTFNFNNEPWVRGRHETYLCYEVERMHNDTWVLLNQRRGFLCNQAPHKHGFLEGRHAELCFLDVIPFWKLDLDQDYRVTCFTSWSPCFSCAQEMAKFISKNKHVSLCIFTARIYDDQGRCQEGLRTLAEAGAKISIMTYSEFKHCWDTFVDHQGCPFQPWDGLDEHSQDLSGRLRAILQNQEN

Question: `COCCN(Cc1cc2cc3c(cc2nc1Cl)OCO3)C(=O)c1cccc(C)c1` was tested. Which inhibition did it give?
Answer: inconclusive: 39.8%

Question: How did the inhibition turn out when `COc1ccc(N2CCN(CC(O)COc3ccc([N+](=O)[O-])cc3)CC2)cc1` (stereo not drawn) was run?
Answer: inconclusive: 36.5%

Question: How did the inhibition turn out when `CC(=O)NC1=NN(C(C)=O)C(c2cccs2)S1` (stereo not drawn) was run?
Answer: inconclusive: 47.1%

Question: Which inhibition does the source give for `CC(NC(=O)c1cc(S(=O)(=O)N(C)C)ccc1N1CCCC1)C1CC2CCC1C2` (stereo not drawn) here?
Answer: inconclusive: 39.4%

Question: How did the inhibition turn out when `CC1=CC(=O)[C@H]2C(C)(C)CCC[C@]2(C)[C@@]1(O)CO` was run?
Answer: inconclusive: 44%

Question: How did the inhibition turn out when `CS(=O)(=O)c1ccc(C(=O)NCC(c2ccco2)N2CCCCC2)cc1` (stereo not drawn) was run?
Answer: inconclusive: 53.8%

Question: Which inhibition does the source give for `Cc1csc(/C(=N/OC(=O)c2ccco2)C(N)=O)n1` here?
Answer: inconclusive: 42.5%

Question: How did the inhibition turn out when `O=c1c2c3nc4ccccc4nc3n(/N=C/c3ccncc3)c2ncn1-c1ccccc1` was run?
Answer: inconclusive: 33.6%

Question: How did the inhibition turn out when `Cn1c(C(=O)NCCc2c[nH]c3ccccc23)cc2sccc21` was run?
Answer: inconclusive: 35.3%

Question: `Cc1ccccc1NC(=O)/C(=C/c1ccco1)c1ccccc1` was tested. Which inhibition did it give?
Answer: inconclusive: 34%

Question: `Cc1ccc(-c2c(C(=O)NNC(=S)NCC3CCCO3)csc2C)cc1` (stereo not drawn) was tested. Which inhibition did it give?
Answer: inconclusive: 58%

Question: With `Cc1cccc(C(=O)Nc2sc3c(c2C#N)CCCCC3)c1` as the compound, how does the inhibition read?
Answer: inactive: -5.88%

Question: Which inhibition does the source give for `COC(=O)CN(c1ccc2c(c1)OCO2)S(C)(=O)=O` here?
Answer: inconclusive: 37.4%

Question: With `O=C(NCc1nc(-c2ccc(C(F)(F)F)cc2)no1)Nc1ccc(OC(F)(F)F)cc1` as the compound, how does the inhibition read?
Answer: inconclusive: 54.1%

Question: For `CCCCn1c(=S)[nH]c2ccc(N3CCOCC3)cc2c1=O`, which inhibition is on record?
Answer: inactive: -3.86%

Question: With `CCCn1c(=O)c2c(nc3n2CCN3Cc2ccco2)n(C)c1=O` as the compound, how does the inhibition read?
Answer: inconclusive: 60.5%

Question: Which inhibition does the source give for `COCCn1c(=S)[nH]c2cc(C(=O)NCCc3ccc(OC)c(OC)c3)ccc2c1=O` here?
Answer: inconclusive: 61.2%

Question: For `Cc1cc(C)c2[nH]c(=O)c(C(c3nnnn3C(C)(C)C)N(Cc3ccco3)CC3CCCO3)cc2c1` (stereo not drawn), which inhibition is on record?
Answer: inconclusive: 35.1%

Question: How did the inhibition turn out when `Cc1cc(F)ccc1S(=O)(=O)Nc1ccccc1C(=O)Nc1ncn[nH]1` was run?
Answer: inactive: -4.68%

Question: How did the inhibition turn out when `CCCCOc1ccc(C(=O)N/C(=C\c2ccc(OC)cc2)C(=O)OCc2ccco2)cc1` was run?
Answer: inactive: -1.87%

Question: `CCCn1c(N)c(N2CCCCC2)c(=O)n(CC(=O)Nc2ccccc2C)c1=O` was tested. Which inhibition did it give?
Answer: inconclusive: 47.3%

Question: `Cc1ccc(N=Cc2ccc[nH]2)c(O)c1` was tested. Which inhibition did it give?
Answer: inconclusive: 50.6%

Question: Which inhibition does the source give for `Cn1c(=O)c(C(=O)c2ccccc2)nc2ccccc21` here?
Answer: inconclusive: 45.1%

Question: How did the inhibition turn out when `FC(F)(F)c1cc(-c2ccco2)nc(NCc2cccs2)n1` was run?
Answer: inconclusive: 48.5%

Question: For `COc1cc2c(cc1OC)C(C(=O)N1CCN(c3ccccn3)CC1)C(c1cccs1)N(C)C2=O` (stereo not drawn), which inhibition is on record?
Answer: inconclusive: 46.9%

Question: `CC(C)(C)NC(=O)CN(Cc1cccs1)C(=O)CNS(=O)(=O)c1ccccc1` was tested. Which inhibition did it give?
Answer: inconclusive: 37.3%

Question: `Cc1ccc2[nH]c(=O)c(C(c3nnnn3CC3CCCO3)N3CCCc4ccccc43)cc2c1` (stereo not drawn) was tested. Which inhibition did it give?
Answer: inconclusive: 54%

Question: Which inhibition does the source give for `Cc1onc(-c2c(F)cccc2Cl)c1C(=O)Nc1cccc(Cn2cccn2)c1` here?
Answer: inconclusive: 37.9%

Question: Which inhibition does the source give for `CS(=O)(=O)c1ccc(Cl)c(NC(=O)COC(=O)CNC(=O)c2ccc(Br)o2)c1` here?
Answer: inconclusive: 46.9%

Question: Which inhibition does the source give for `CCN1C(=O)/C(=C\N(C)C)S/C1=N\S(=O)(=O)c1ccc(C)cc1` here?
Answer: inconclusive: 34.9%

Question: `CCCS(=O)(=O)NCc1ccc2c(c1)cc(C)n2C` was tested. Which inhibition did it give?
Answer: inconclusive: 37%

Question: How did the inhibition turn out when `COc1ccccc1Nc1nc(N)nc(CSCCO)n1` was run?
Answer: inconclusive: 56.7%

Question: With `O=C(CN1CCCc2ccccc21)NCCc1ccc(Cl)cc1` as the compound, how does the inhibition read?
Answer: inactive: 32.1%

Question: Which inhibition does the source give for `CCc1ccc(C(C)NC(=O)c2cc(C)oc2C)cc1` (stereo not drawn) here?
Answer: inconclusive: 28.3%

Question: How did the inhibition turn out when `CC(C)C(c1nnnn1C1CCCC1)N1CCCc2ccccc21` (stereo not drawn) was run?
Answer: inconclusive: 56%

Question: How did the inhibition turn out when `C=CCn1c(C2CC(=O)N(c3ccc(C)cc3)C2)nc2ccccc21` (stereo not drawn) was run?
Answer: inconclusive: 36.2%

Question: For `Cc1c(NC(=O)CC(C)C)c(=O)n(-c2ccccc2)n1C`, which inhibition is on record?
Answer: inconclusive: 33.5%

Question: How did the inhibition turn out when `O=C(NC1CCCCC1)C(c1ccc2ncccc2c1)N(Cc1ccc(F)cc1)C(=O)c1cccs1` (stereo not drawn) was run?
Answer: inconclusive: 52.8%

Question: Which inhibition does the source give for `Cc1ccc(-c2nnc(N3CCN(CCO)CC3)c3ccccc23)cc1` here?
Answer: inconclusive: 51.1%

Question: With `O=C(/C=C/c1ccc(Cl)cc1Cl)c1cccnc1` as the compound, how does the inhibition read?
Answer: inconclusive: 38.3%

Question: With `CCc1ccccc1N1CSC2=C(C#N)C(c3cc(OC)c(OC)cc3OC)CC(=O)N2C1` (stereo not drawn) as the compound, how does the inhibition read?
Answer: inconclusive: 59.6%

Question: With `Cn1c(=O)c2c(-c3ccccc3)n(Cc3ccccn3)cc2n(C)c1=O` as the compound, how does the inhibition read?
Answer: inactive: -0.87%

Question: With `O=C(CSc1ccc(C(F)(F)F)cc1[N+](=O)[O-])Nc1ccc2ccccc2c1` as the compound, how does the inhibition read?
Answer: inconclusive: 47.1%

Question: With `CCOc1ccccc1OCC(=O)NCCc1ccc(S(N)(=O)=O)cc1` as the compound, how does the inhibition read?
Answer: inconclusive: 34%

Question: Which inhibition does the source give for `CCn1c(-c2ccccc2Cl)nn(CC(=O)NCCc2ccccc2)c1=S` here?
Answer: inconclusive: 47.6%

Question: For `O=C1/C(=C/c2ccccc2)SC(=S)N1N1C(=O)C2CC2C1=O` (stereo not drawn), which inhibition is on record?
Answer: inactive: -1.11%

Question: Which inhibition does the source give for `CC(=O)N1CCN(S(=O)(=O)c2cccc(C(=O)Nc3ccccc3N3CCCC3)c2)CC1` here?
Answer: inconclusive: 33.6%

Question: With `Oc1c(Cl)cc(Cl)cc1C(C#Cc1ccccc1)N1CCOCC1` (stereo not drawn) as the compound, how does the inhibition read?
Answer: inconclusive: 60.2%

Question: Which inhibition does the source give for `CC(=O)Nc1cccc(N2C(=O)CC(N3CCC(C(=O)N4CCCCC4)CC3)C2=O)c1` (stereo not drawn) here?
Answer: inconclusive: 36.8%

Question: How did the inhibition turn out when `COc1cc([N+](=O)[O-])ccc1NC(=O)CSc1nc2ccccc2n1-c1ccccc1` was run?
Answer: inconclusive: 45.5%

Question: `Cn1c(=O)c2c(nc(NN=C3CCCC3)n2C)n(C)c1=O` was tested. Which inhibition did it give?
Answer: inconclusive: 46.2%

Question: For `CC(C)OC(=O)CSc1nnc(-c2ccncc2)n1N`, which inhibition is on record?
Answer: inactive: -2.43%

Question: For `COc1ccc2c(c1)NC(C)(C)C=C2C`, which inhibition is on record?
Answer: inactive: 32.2%

Question: How did the inhibition turn out when `Cn1c(SCC(=O)NCc2cccs2)nnc1-c1cccs1` was run?
Answer: inconclusive: 41.1%

Question: `CSc1cccc(NC(=O)c2cnn3ccccc23)c1` was tested. Which inhibition did it give?
Answer: inactive: 1.6%

Question: Which inhibition does the source give for `O=C1OC(c2ccccc2)/C(=C(/O)c2ccccc2)C1=O` (stereo not drawn) here?
Answer: inconclusive: 61%

Question: How did the inhibition turn out when `COc1ccc(-c2nc(C#N)c(N3CCCCCC3)o2)cc1OC` was run?
Answer: inconclusive: 45.1%

Question: Which inhibition does the source give for `O=C(NNC(=S)NCC1CCCO1)c1cccc(S(=O)(=O)N2CCOCC2)c1` (stereo not drawn) here?
Answer: inconclusive: 48.5%

Question: Which inhibition does the source give for `COCCNCCOc1ccc(C)cc1[N+](=O)[O-]` here?
Answer: inconclusive: 38.5%

Question: For `COCCN1C(=O)c2ccccc2C(C(=O)NCCN(C)C)C1c1ccc(F)cc1` (stereo not drawn), which inhibition is on record?
Answer: inconclusive: 62.3%

Question: Which inhibition does the source give for `CC(C)CC(OC(=O)c1ccco1)C(=O)NC1CCCCC1` (stereo not drawn) here?
Answer: inconclusive: 44.9%

Question: With `Cc1ccc(-c2cc(C(=O)N/N=C/C=C/c3ccco3)c3ccccc3n2)cc1C` as the compound, how does the inhibition read?
Answer: inconclusive: 58.3%

Question: How did the inhibition turn out when `N[C@@H](C(=O)N[C@@H]1C(=O)N2C(C(=O)O)=C(Cl)CS[C@H]12)c1ccccc1` was run?
Answer: inconclusive: 40.3%

Question: For `COc1ccc(NCc2nnc(SCC(=O)Nc3nc(-c4ccccc4)cs3)n2-c2ccccc2)cc1`, which inhibition is on record?
Answer: inconclusive: 49.9%

Question: With `N#Cc1c(-c2ccncc2)c2c([nH]c1=S)CCCC2` as the compound, how does the inhibition read?
Answer: inconclusive: 35%

Question: Which inhibition does the source give for `c1ccc(-c2nc(NCc3ccco3)c3ccccc3n2)cc1` here?
Answer: inconclusive: 51%

Question: How did the inhibition turn out when `C=C(C)C(=O)Nc1cccc(C2=NOC3(C2)C[C@@H](C(N)=O)N(C(=O)c2ccc(Cl)cc2)C3)c1` (stereo partly drawn) was run?
Answer: inconclusive: 53.9%

Question: With `O=C1NC(c2ccccc2Cl)=N/C1=C/c1ccco1` as the compound, how does the inhibition read?
Answer: inconclusive: 43.9%

Question: How did the inhibition turn out when `CC(=O)c1cnn(-c2cc(Oc3ccccc3C)ncn2)c1C` was run?
Answer: inconclusive: 59.6%

Question: Which inhibition does the source give for `Cc1cccc(N2CCN(c3cc(C)nc4nnnn34)CC2C)c1` (stereo not drawn) here?
Answer: inconclusive: 36%

Question: `O=C(CCCC(=O)OCC(F)(F)C(F)F)Nc1ccccc1F` was tested. Which inhibition did it give?
Answer: inactive: 0.88%

Question: `CCOCC(=O)OCC(=O)Nc1cc(OC)c([N+](=O)[O-])cc1C` was tested. Which inhibition did it give?
Answer: inactive: 7.7%

Question: `CNC(=O)/C(C#N)=C\c1ccc(CNS(=O)(=O)c2ccc(Cl)cc2)o1` was tested. Which inhibition did it give?
Answer: inconclusive: 36.9%

Question: `C=CCn1cnc2c(NCc3ccccc3)ncnc21` was tested. Which inhibition did it give?
Answer: inconclusive: 59.5%

Question: `CC(=O)N1CC2(CC(=O)OC(C)C)CN(C(C)=O)CC(CC(=O)OC(C)C)(C1)C2=O` was tested. Which inhibition did it give?
Answer: inconclusive: 33.2%

Question: How did the inhibition turn out when `COc1cc(OC)cc(C(=O)Nc2ccc(CN3CCCCC3)cc2)c1` was run?
Answer: inconclusive: 52.4%

Question: `O=S(=O)(c1ccc(Cl)s1)N1CCN(C/C=C/c2ccccc2)CC1` was tested. Which inhibition did it give?
Answer: inconclusive: 57%

Question: `O=C(CN1CCN(C(=O)c2ccccc2)CC1)Nc1ccc(Cl)cc1F` was tested. Which inhibition did it give?
Answer: inconclusive: 43.9%

Question: `Cc1ccc(O)c(C2=Nc3ccccc3N=C(c3cccc([N+](=O)[O-])c3)C2)c1` was tested. Which inhibition did it give?
Answer: inconclusive: 48.6%

Question: How did the inhibition turn out when `Cc1ccc2c(c1)[nH]c1c(=O)n(CCN3CCCCC3)cnc12` was run?
Answer: inconclusive: 45.2%

Question: Which inhibition does the source give for `Cc1ccc(-c2ccccc2NC(=O)CS(=O)CC(=O)Nc2ccc(C)c(Cl)c2)o1` (stereo not drawn) here?
Answer: inconclusive: 34%

Question: For `O=C1NC(c2ccc3c(c2)OCO3)Oc2ccccc21` (stereo not drawn), which inhibition is on record?
Answer: inconclusive: 47.4%

Question: With `Cc1ccc(-n2ncc3c(N4CCN(c5ccccc5)CC4)ncnc32)c(C)c1` as the compound, how does the inhibition read?
Answer: inconclusive: 59.2%

Question: Which inhibition does the source give for `Cc1cc(=O)[nH]c(SCCOc2ccc(OC(C)C)cc2)n1` here?
Answer: inconclusive: 41.1%

Question: For `CCOc1ccccc1NC(=O)C(=O)/C=C(\O)c1cc(OC)ccc1OC`, which inhibition is on record?
Answer: inconclusive: 40.2%

Question: For `O=C1C2CCCN2C(=O)N1CCCCN1CCN(c2ccc(F)cc2)CC1` (stereo not drawn), which inhibition is on record?
Answer: inactive: -0.87%

Question: How did the inhibition turn out when `COc1cc(C(c2c(C)[nH][nH]c2=O)c2c(C)[nH][nH]c2=O)ccc1OC(=O)c1cccc([N+](=O)[O-])c1` was run?
Answer: inconclusive: 35.1%

Question: `CCN(CC)C(=O)Cc1cc(C(=O)O)c2ccccc2n1` was tested. Which inhibition did it give?
Answer: inconclusive: 41.9%

— PubChem BioAssay AID1117319 (Southern Research Institute, 2015)
